We go through 22 compounds from the supplement of paper PMC10727501.

The other results are listed elsewhere or left out. Single values are uncertain here, since repeats match poorly.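 Free-swimming zebrafish larvae were scored for O-bend response probability to dark flashes (naive: first five; training: remaining flashes of four 60-flash blocks; test: later 60-flash block) and for turning toward alternating leftward/rightward LED motion (OMR). Six treated larvae were compared with sixty 0.1% DMSO controls; |SSMD|≥2 defined a hit.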

Holding throughout (conditions): 10 µM; pre-incubation: 30-90 min
For assay [1], the system named is Danio rerio larvae (5 dpf, TLF). The assay is described as follows: OMR-Perf (SSMD vs DMSO vehicle); higher = higher than vehicle (e.g. higher dark-flash O-bend response probability, or better optomotor performance).
The test system is the same in assay [2]. The assay is described as follows: Prob-Test (SSMD vs DMSO vehicle); higher = higher than vehicle (e.g. higher dark-flash O-bend response probability, or better optomotor performance).
Assay [3] has the same test system. In words: Prob-Naive (SSMD vs DMSO vehicle); higher = higher than vehicle (e.g. higher dark-flash O-bend response probability, or better optomotor performance).
For assay [4] the test system is unchanged. In words: Prob-Train (SSMD vs DMSO vehicle); higher = higher than vehicle (e.g. higher dark-flash O-bend response probability, or better optomotor performance).

On to `C[C@]1(C(=O)Nc2ccc(F)nc2)CCCN1c1nc(Nc2cc(C3CC3)[nH]n2)c2cccn2n1`, for which the OMR-Perf in assay [1] is 0.137. The compound further showed a Prob-Test in assay [2] of -0.403. In addition, the Prob-Naive in assay [3] was -0.455. Moreover, the Prob-Train in assay [4] was -0.469.
In the same order, the values of `CCN(CC)Cc1ccc2cc(COC(=O)Nc3ccc(C(=O)NO)cc3)ccc2c1.Cl.O` [Givinostat (ITF2357)] are 0.321, 0.289, 0 and -0.34.
As to `Cc1cnc(C(=O)O)c[n+]1[O-]` [Acipimox], in assay [1], the OMR-Perf is -0.35. In assay [2], this compound showed a Prob-Test of -0.416. The compound further gave a Prob-Naive in assay [3] of 0.184. The compound further showed a Prob-Train in assay [4] of -0.636.
In the same order, the values of `C[C@@](Cc1ccc(O)c(O)c1)(NN)C(=O)O` [Carbidopa] are -0.185, 0.0557, -0.196 and -0.118.
In the same order, the values of `Cc1cc([C@@H](C)Nc2ccccc2C(=O)O)c2nc(N3CCOCC3)cc(=O)n2c1` are -0.0339, 0.388, 0.564 and 0.151.
In the same order, the values of `CC(C)(C)c1cc(C(C)(C)C)c(NC(=O)c2c[nH]c3ccccc3c2=O)cc1O` [Ivacaftor (VX-770)] are -0.151, -0.28, 0.0343 and 0.0758.
With `CNC[C@H](O)c1ccc(O)c(O)c1.O=C(O)[C@H](O)[C@@H](O)C(=O)O` [Epinephrine Bitartrate], the OMR-Perf in assay [1] was -0.399. Further, the Prob-Test in assay [2] turned out to be 0.289. Further, the Prob-Naive in assay [3] was -0.0304. Moreover, the Prob-Train in assay [4] is -0.0218.
For `CN(C)C/C=C/C(=O)Nc1cc2c(Nc3ccc(F)c(Cl)c3)ncnc2cc1O[C@H]1CCOC1` [Afatinib (BIBW2992)], in that order: 0.274, -0.181, 0.0778 and -0.371.
For `Cc1coc2c1C(=O)C(=O)c1c-2ccc2c1CCCC2(C)C` [Tanshinone IIA], in that order: -1.01, -0.276, 0.208 and -0.503.
In the same order, the values of `CC(C)NC[C@H](O)COc1ccc(CCOCC2CC2)cc1.Cl` [Levobetaxolol HCl] are 0.43, 0.154, 0.0551 and 0.0867.
In the case of `NC(Cc1c[nH]c2ccc(O)cc12)C(=O)O` (stereo not drawn) [5-hydroxytryptophan (5-HTP)], the OMR-Perf in assay [1] was 0.19. This compound displayed a Prob-Test in assay [2] of 0.316. Besides, the Prob-Naive in assay [3] was -0.311. In addition, the Prob-Train in assay [4] is -0.162.
In assay [1], `Cc1ccc(NC(=O)c2cccc(N(C)C)c2)cc1NC(=O)c1ccc(O)cc1` registered an OMR-Perf of -0.146. In addition, the Prob-Test in assay [2] was -0.372. For the same compound, the Prob-Naive in assay [3] came to 0.102. Besides, the Prob-Train in assay [4] is -0.187.
In the same order, the values of `[O-][n+]1cccc(CO)c1` [Mepiroxol] are 0.138, -0.0117, 0.153 and 0.0302.
In the case of `CCN1CCN(C(=O)N[C@@H](C(=O)N[C@@H]2C(=O)N3C(C(=O)O)=C(CSc4nnnn4C)CS[C@H]23)c2ccc(O)cc2)C(=O)C1=O` [Cefoperazone], in assay [1], the OMR-Perf is -0.465. In addition, the Prob-Test in assay [2] was 0.428. This compound had a Prob-Naive in assay [3] of 0.493. The same compound yielded a Prob-Train in assay [4] of 0.0909.
For `NCC[C@H](O)C(=O)N[C@@H]1C[C@H](N)[C@H](O[C@H]2O[C@H](CN)[C@@H](O)[C@@H](O)[C@H]2O)[C@H](O)[C@H]1O[C@H]1O[C@H](CO)[C@@H](O)[C@@H](N)[C@H]1O.O=S(=O)(O)O.O=S(=O)(O)O` [Amikacin sulfate], in that order: -0.0075, -0.00111, 0.421 and 0.139.
In the same order, the values of `CC[C@H](C)C(=O)O[C@@H]1C[C@H](O)C=C2C=C[C@H](C)[C@@H](CC[C@@H](O)C[C@@H](O)CC(=O)[O-])[C@H]21.[Na+]` [Pravastatin sodium] are -0.122, -0.187, 0.584 and 0.249.
In the same order, the values of `COC(=O)Nc1nc2ccc(S(=O)c3ccccc3)cc2[nH]1` (stereo not drawn) [Oxfendazole] are -0.609, -0.676, 0.26 and -0.48.
As to `NC(=O)N1CCC(CC(=O)N2CCC([C@H]3c4ncc(Br)cc4CCc4cc(Cl)cc(Br)c43)CC2)CC1` [Lonafarnib], the OMR-Perf in assay [1] was -0.792. In assay [2], this compound showed a Prob-Test of -1.39. For the same compound, the Prob-Naive in assay [3] stood at 0.302. This compound also yielded a Prob-Train in assay [4] of -0.901.
In turn, `CCC(=O)O[C@@]1(C(=O)CCl)[C@@H](C)C[C@H]2[C@@H]3C[C@H](F)C4=CC(=O)C=C[C@]4(C)[C@]3(F)[C@H](O)C[C@@]21C` [Halobetasol Propionate] displayed an OMR-Perf in assay [1] of 0.726. This compound registered a Prob-Test in assay [2] of -0.67. In assay [3], the Prob-Naive is -0.382. Besides, the Prob-Train in assay [4] is -0.653.
In the same order, the values of `CO/N=C(/C(=O)N[C@H]1C(=O)N2C(C(=O)O)=C(CSC(=O)c3ccco3)CS[C@H]12)c1csc(N)n1.Cl` [Ceftiofur HCl] are -0.565, 0.0837, -0.383 and 0.0814.
In the same order, the values of `Cl.O=c1n(CCCN2CCN(c3cccc(Cl)c3)CC2)nc2ccccn12` [Trazodone HCl] are -0.471, -0.433, 0.644 and 0.198.
Take `Cl.Cl.O=S(=O)(NCCNC/C=C/c1ccc(Br)cc1)c1cccc2cnccc12`: the OMR-Perf in assay [1] worked out at 0.244. In addition, the Prob-Test in assay [2] was -0.895. This compound came in with a Prob-Naive in assay [3] of 0.313. The Prob-Train in assay [4] was -0.63.
